Laboratory results: PubChem BioAssay AID504744 (Drosophila RNAi Screening Center, 2011)
Test: 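Uncover factors, including feedback loops, that control dAkt activation in fly cells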 (primary screen). Cell system: Drosophila Kc167 cells. Reagent: long dsRNA against Drosophila genes, 250 ng dsRNA per well of a 384-well plate. Timing: 3 days of knock-down, then overnight serum-free starvation before stimulation. Conditions: bovine insulin at 387 nM for 10 minutes after 12 h without serum. Measured: 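In-cell antibody fluorescence for phospho-dAkt in each well over DNA-dye signal, with log2 residuals expressed as z-scores adjusted for cell count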. Rule for the call: 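Hit in the insulin screen when the two-replicate mean z-score is more extreme than plus or minus 2.5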.
The screen tested about 23,000 reagents; shown is an unselected part of those with a known target gene and a result. Over the whole deposit, 98 (0.43%) were called active. 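Only hit calls are given; the phospho-dAkt signals, z-scores and hit direction were not deposited.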 Names joined by + are all predicted targets of the reagent. No sequences are given here.

gene	DRSC id	call
CG15615	DRSC06568	inactive
CG17633	DRSC02631	inactive
CG34107	DRSC14554	inactive
coro	DRSC05007	inactive
coro	DRSC21417	inactive
MED8	DRSC06426	inactive
wake	DRSC16148	inactive
wake	DRSC16149	inactive
RPA3	DRSC19658	inactive
Obp99a	DRSC15303	inactive
ATPCL	DRSC05913	inactive
CG6271	DRSC16006	inactive
CG11262	DRSC09831	inactive
CG34045	DRSC05787	inactive
CG15537	DRSC15073	inactive
Elp2	DRSC06095	inactive
CG15905	DRSC06591	inactive
ras	DRSC18825	inactive
CG32225	DRSC09657	inactive
CG31058 (retired record)	DRSC15840	inactive
Ced-12	DRSC02840	inactive
psidin	DRSC15660	inactive
CG15152	DRSC02453	inactive
CG15745 (retired record)	DRSC19711	inactive
WDR79	DRSC03159	inactive
CG11381	DRSC17780	inactive
Patj	DRSC08712	inactive
ND-49L	DRSC14437	inactive
CG8950	DRSC07300	inactive
B9d1	DRSC14993	inactive
Zasp67	DRSC10169	inactive
grk	DRSC03540	inactive
Prosalpha3	DRSC04644	inactive
Saf6	DRSC00633	inactive
HLH3B	DRSC18669	inactive
TrissinR	DRSC02334	inactive
TrissinR	DRSC02335	inactive
TrissinR	DRSC02336	inactive
arm	DRSC18738	inactive
Tbh	DRSC18723	inactive
CG31954	DRSC00580	inactive
CG11674	DRSC19414	inactive
CG9717	DRSC16543	inactive
side-V	DRSC04188	inactive
side-V	DRSC04189	inactive
side-V	DRSC22266	inactive
Duox	DRSC00571	inactive
CG5342	DRSC15776	inactive
mRpL49	DRSC19908	inactive
Ocho	DRSC11239	inactive
MED23 + CG3700	DRSC04406	inactive
MED23 + CG3700	DRSC04407	inactive
CG31960	DRSC00281	inactive
Pgam5	DRSC18551	inactive
Kr-h1	DRSC00908	inactive
Kr-h1	DRSC03355	inactive

Look-ups from the entries so far.
CG8950 [DRSC07300], call → inactive
CG34045 [DRSC05787], call = inactive
Result for ND-49L [DRSC14437] in “call”: inactive
Under “call”, Tbh [DRSC18723] has inactive
Duox [DRSC00571], call = inactive
Under “call”, Prosalpha3 [DRSC04644] has inactive

The listing continues.
gene	DRSC id	call
CG3734	DRSC15509	inactive
VhaAC45	DRSC07058	inactive
Glut3	DRSC16681	inactive
fand	DRSC06967	inactive
bam	DRSC16907	inactive
l(2)03659	DRSC07269	inactive
l(2)03659	DRSC07638	inactive
CG14506	DRSC14858	inactive
CG8414	DRSC07168	inactive
CG42699	DRSC18076	inactive
CG42699	DRSC18341	inactive
Jupiter	DRSC15204	inactive
Jupiter	DRSC15205	inactive
Jupiter	DRSC15389	inactive
dsh	DRSC19803	inactive
Smyd4-1	DRSC06785	inactive
CG7220	DRSC05235	inactive
CG7220	DRSC07018	inactive
CG16799	DRSC06626	inactive
CG16799	DRSC21553	inactive
RpL9	DRSC03418	inactive
CHOp24	DRSC18310	inactive
CheA46a	DRSC05184	inactive
Cyp303a1	DRSC03300	inactive
Dnaaf3	DRSC06684	inactive
kat-60L1	DRSC12184	inactive
Rab21	DRSC20968	inactive
Slob (retired record)	DRSC03436	inactive
rdgBbeta	DRSC07672	inactive
dare + CG30033	DRSC22908	inactive
CG14570	DRSC11731	inactive
CG10911	DRSC06008	inactive
Vps52	DRSC03050	inactive
COX7AL2	DRSC00099	inactive
chk	DRSC04994	inactive
CG13438	DRSC06398	inactive
CG43333	DRSC01917	inactive
Ttc1	DRSC15016	inactive
Ttc1	DRSC22469	inactive
Diedel	DRSC14317	inactive
5-HT2A	DRSC11990	inactive
CG42266	DRSC21577	inactive
CG42266	DRSC21957	inactive
Obp57e	DRSC05891	inactive
spn-D	DRSC22641	inactive
CG3505	DRSC15489	inactive
Rab7	DRSC16810	inactive
Ssl2	DRSC14395	inactive
Ssl2	DRSC22796	inactive
CG32793	DRSC18145	inactive
CG32793	DRSC18194	inactive
